PubChem BioAssay AID256 (DTP/NCI, 2004)
The list shows only some results of the screen, not a fair sample: it gathers tests that were run many times, whatever their T/C, doses with no T/C, and many T/C values between a quarter and a half above the control. Further doses and runs are listed elsewhere. T/C gives the treated animals as a percentage of the vehicle group. Some doses have a count of surviving animals in place of a T/C: the source holds a T/C of zero for them, seemingly a mark for toxic or unscored doses. Some doses without a T/C left all or most animals alive at the check, yet need not have been tolerated: the source hardly ever lists a survival T/C far under the control, and the zero likely stands for such cases as well. Survivors were counted at the toxicity check, usually on the fifth day, unless a day is given; later deaths do not show. Schedules are NCI's codes, read here as Q, the interval in days (D) or hours (H), X, the number of doses. Some entries were tested several times; their values stand side by side, smallest first. For survival time, this PubChem deposit counts one and a half times the control or more as active, and values a quarter to a half above the control carry no call in these data; other NCI protocols may use other cut-offs. Additions like (4×) say how often a value occurs here. Some structures stand for samples that the source files as different forms (salt, stereo form or complex); doses refer to the form tested. Some T/C values are followed by the survivors on the day toxicity was checked, most often the fifth; where none is given, no animal had died by that day.

Tested on: CD2F1 mice, L1210 leukemia ip, survival T/C
Test: NCI In Vivo Anticancer Drug Screen. Data for tumor model L1210 Leukemia (intraperitoneal) in CD2F1 (CDF1) mice
Conditions: higher T/C = longer survival
How it was run: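 Read-out first: treated-group measurement over vehicle-control measurement, expressed as a ratio. Animals bore a transplanted tumor line and were dosed with compound or vehicle.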

[1] = T/C endpoint: median survival time, dose: 200.0 mg/kg/injection, schedule: Q01DX009 (ip), vehicle: saline with Tween-80
[2] = T/C endpoint: mean survival time, dose: 100.0 mg/kg/injection, schedule: Q04DX003 (ip), vehicle: saline with Tween-80
[3] = T/C endpoint: mean survival time, dose: 200.0 mg/kg/injection, schedule: Q04DX003 (ip), vehicle: saline with Tween-80
[4] = T/C endpoint: mean survival time, dose: 400.0 mg/kg/injection, schedule: Q04DX003 (ip), vehicle: saline with Tween-80
[5] = T/C endpoint: mean survival time, dose: 400.0 mg/kg/injection, schedule: Q01DX009 (ip), vehicle: saline with Tween-80
[6] = T/C endpoint: median survival time, dose: 400.0 mg/kg/injection, schedule: Q01DX009 (ip), vehicle: Klucel (hydroxypropylcellulose) (HPC)
[7] = T/C endpoint: mean survival time, dose: 400.0 mg/kg/injection, schedule: Q04DX003 (ip), vehicle: saline

`Cn1c(=O)c2c(ncn2C)n(C)c1=O` was tested, and the T/C (T/C endpoint: mean survival time, dose: 128.0 mg/kg/injection, schedule: Q01DX001 (sc), vehicle: water, evaluated on day 7) was 94, 98, 99, 103 % of control, the T/C (T/C endpoint: mean survival time, dose: 128.0 mg/kg/injection, schedule: Q01DX001 (sc), vehicle: water, evaluated on day 40) was 100 % of control and the T/C (T/C endpoint: mean survival time, dose: 128.0 mg/kg/injection, schedule: Q01DX001 (sc), vehicle: water, evaluated on day 60) was 98 % of control. For the same molecule, the T/C (T/C endpoint: mean survival time, dose: 160.0 mg/kg/injection, schedule: Q01DX001 (sc), vehicle: water, evaluated on day 7) was 95, 98 (2×), 104 % of control, the T/C (T/C endpoint: mean survival time, dose: 160.0 mg/kg/injection, schedule: Q01DX001 (sc), vehicle: water, evaluated on day 40) was 98 % of control and the T/C (T/C endpoint: mean survival time, dose: 160.0 mg/kg/injection, schedule: Q01DX001 (sc), vehicle: water, evaluated on day 60) was 104 % of control. For the same molecule, the T/C (T/C endpoint: mean survival time, dose: 200.0 mg/kg/injection, schedule: Q01DX001 (sc), vehicle: water, evaluated on day 7) was 96, 98, 101, 103 % of control, the T/C (T/C endpoint: mean survival time, dose: 200.0 mg/kg/injection, schedule: Q01DX001 (sc), vehicle: water, evaluated on day 40) was 101 % of control and the T/C (T/C endpoint: mean survival time, dose: 200.0 mg/kg/injection, schedule: Q01DX001 (sc), vehicle: water, evaluated on day 60) was 103 % of control. For the same molecule, the T/C (T/C endpoint: mean survival time, dose: 250.0 mg/kg/injection, schedule: Q01DX001 (sc), vehicle: water, evaluated on day 7) was 96, 98, 99, 109 % of control, the T/C (T/C endpoint: mean survival time, dose: 250.0 mg/kg/injection, schedule: Q01DX001 (sc), vehicle: water, evaluated on day 40) was 100 % of control [9 of 10 alive] and the T/C (T/C endpoint: mean survival time, dose: 250.0 mg/kg/injection, schedule: Q01DX001 (sc), vehicle: water, evaluated on day 60) was 109 % of control.
For `CCCCNP1(NCCCC)=NP(NCCCC)(NCCCC)=NP(NCCCC)(NCCCC)=NP(NCCCC)(NCCCC)=N1`, the survivor count (T/C endpoint: median survival time, dose: 100.0 mg/kg/injection, schedule: Q01DX009 (ip), vehicle: saline with Tween-80) was 2 of 6 and the survivor count [1] was 0 of 6.
With `C=COC(N)=O` the T/C (T/C endpoint: mean survival time, dose: 75.0 mg/kg/injection, schedule: Q01DX001 (ip), vehicle: saline) was 125 % of control, the survivor count (T/C endpoint: mean survival time, dose: 150.0 mg/kg/injection, schedule: Q01DX001 (ip), vehicle: saline) was 0 of 6 and the survivor count (T/C endpoint: mean survival time, dose: 300.0 mg/kg/injection, schedule: Q01DX001 (ip), vehicle: saline) was 0 of 6.
For `CCOP1(=O)OCC(C(C)(C)C)CO1` (stereo not drawn), the survivor count (T/C endpoint: mean survival time, dose: 50.0 mg/kg/injection, schedule: Q04DX003 (ip), vehicle: Klucel (hydroxypropylcellulose) (HPC)) was 0 of 6.
In the case of `CCCCCCCCCCCCNC(=O)C[N+](C)(C)Cc1ccc2c(c1)CCCC2`, the survivor count (T/C endpoint: mean survival time, dose: 20.0 mg/kg/injection, schedule: Q04DX003 (ip), vehicle: saline with Tween-80) was 5 of 6, the survivor count [2] was 0 of 6 and the survivor count [3] was 0 of 6. For the same molecule, the survivor count [4] was 0 of 6.
In the case of `O=C1CCCC1=P(c1ccccc1)(c1ccccc1)c1ccccc1`, the survivor count (T/C endpoint: mean survival time, dose: 400.0 mg/kg/injection, schedule: Q04DX003 (ip), vehicle: other) was 1 of 6.
With `c1coc(CNc2ncnc3c2ncn3CCCCCCn2cnc3c(NCc4ccco4)ncnc32)c1` the survivor count (T/C endpoint: mean survival time, dose: 8.0 mg/kg/injection, schedule: Q01DX005 (ip), vehicle: other) was 3 of 3.
In the case of `CNC(=S)C(=S)NC`, the survivor count [2] was 5 of 6 and the survivor count [3] was 0 of 6.
For `CCOC(=O)CCC(NC(=O)c1ccc(NCc2cnc3nc(N)nc(N)c3c2)cc1)C(=O)OCC` (stereo not drawn), the T/C (T/C endpoint: median survival time, dose: 0.25 mg/kg/injection, schedule: Q01DX005 (ip), vehicle: saline with Tween-80) was 136 % of control and the T/C (T/C endpoint: median survival time, dose: 0.5 mg/kg/injection, schedule: Q01DX005 (ip), vehicle: saline with Tween-80) was 137 % of control.
With `CCOC(=O)/C(C(C)=N)=C(\C)O` the survivor count [5] was 2 of 6.
With `C=CCOc1cc2c(cc1C(C)c1ccc(OC)cc1)OCO2` (stereo not drawn) the T/C (T/C endpoint: median survival time, dose: 100.0 mg/kg/injection, schedule: Q01DX009 (ip), vehicle: Klucel (hydroxypropylcellulose) (HPC)) was 127 % of control, the T/C (T/C endpoint: median survival time, dose: 200.0 mg/kg/injection, schedule: Q01DX009 (ip), vehicle: Klucel (hydroxypropylcellulose) (HPC)) was 136, 139, 143 % of control and the T/C [1] was 125 % of control. For the same molecule, the T/C [6] was 127 % of control, the survivor count [6] was 4 of 6 and 5 of 6 and the survivor count (T/C endpoint: median survival time, dose: 800.0 mg/kg/injection, schedule: Q01DX009 (ip), vehicle: Klucel (hydroxypropylcellulose) (HPC)) was 0 of 6.
With `N=C1CCCS1` the survivor count (T/C endpoint: median survival time, dose: 200.0 mg/kg/injection, schedule: Q01DX009 (ip), vehicle: saline) was 0 of 6 and the survivor count (T/C endpoint: median survival time, dose: 400.0 mg/kg/injection, schedule: Q01DX009 (ip), vehicle: saline) was 0 of 6.
`CC(=O)N(C)N=Nc1ccc(C(C)C)cc1` was tested, and the survivor count (T/C endpoint: mean survival time, dose: 18.75 mg/kg/injection, schedule: Q04DX003 (ip), vehicle: Klucel (hydroxypropylcellulose) (HPC)) was 0 of 6, the survivor count (T/C endpoint: mean survival time, dose: 37.5 mg/kg/injection, schedule: Q04DX003 (ip), vehicle: Klucel (hydroxypropylcellulose) (HPC)) was 0 of 6 and the survivor count (T/C endpoint: mean survival time, dose: 75.0 mg/kg/injection, schedule: Q04DX003 (ip), vehicle: Klucel (hydroxypropylcellulose) (HPC)) was 0 of 6. The survivor count (T/C endpoint: mean survival time, dose: 150.0 mg/kg/injection, schedule: Q04DX003 (ip), vehicle: Klucel (hydroxypropylcellulose) (HPC)) was 0 of 6 and the survivor count (T/C endpoint: mean survival time, dose: 300.0 mg/kg/injection, schedule: Q04DX003 (ip), vehicle: Klucel (hydroxypropylcellulose) (HPC)) was 0 of 6.
`O=[N+]([O-])c1ccc2nsnc2c1` was tested, and the survivor count [5] was 5 of 6.
With `N/C(=N/N=C/c1cc(Br)cc(Br)c1O)NO` the survivor count (T/C endpoint: median survival time, dose: 200.0 mg/kg/injection, schedule: Q01DX005 (ip), vehicle: suspension in saline) was 3 of 6.
In the case of `CCCNCCN(CC)CC`, the survivor count [7] was 5 of 6.
`O=C(C[n+]1cc2ccccc2c2ccccc21)c1ccccc1` was tested, and the survivor count [7] was 1 of 6.
With `CNC(=O)Nc1nnnc2ccccc12` the survivor count [3] was 6 of 6 and the survivor count [4] was 1 of 6.
For `NN1CCCCC1`, the survivor count (T/C endpoint: mean survival time, dose: 400.0 mg/kg/injection, schedule: Q04DX002 (ip), vehicle: saline) was 2 of 3.
In the case of `CN(C)CCC[n+]1cc2c3ccccc3c(N)cc2c2ccccc21`, the survivor count (T/C endpoint: mean survival time, dose: 100.0 mg/kg/injection, schedule: Q04DX003 (ip), vehicle: water) was 3 of 6.
For `OC1=C2CCCCCC2=[N+]2CCCCC2C1` (stereo not drawn), the survivor count [4] was 3 of 6.
In the case of `CC(=O)OCCN1CCN(CCCN2c3ccccc3Sc3ccc(C(F)(F)F)cc32)CC1`, the T/C (T/C endpoint: mean survival time, dose: 9.0 mg/kg/injection, schedule: Q03HX024 (ip), vehicle: saline) was 132 % of control and the T/C (T/C endpoint: mean survival time, dose: 50.0 mg/kg/injection, schedule: Q01DX001 (ip), vehicle: saline) was 129 % of control [5 of 6 alive].
